In patent publication US20160367685A1 (PURDUE RESEARCH FOUNDATION, priority 2013, published 2016):

How the values were obtained:
[1] = general procedure: Fmoc solid-phase peptide synthesis; H-Cys(Trt)-(2-ClTrt) resin; conditions: conjugation step
[2] = general procedure: Fmoc solid-phase peptide synthesis; H-L-Cys(Trt)-(2-ClTrt) resin; conditions: whole synthesis, scale 0.14 mmol

| Substance | conjugation yield [1] [%] | isolated yield ([2]; overall) [% overall yield] | isolated mass [2] [mg] |
| --- | --- | --- | --- |
| (12R,15S,18S,22S,25S,39S,43S)-18-Amino-22,25-dibenzyl-15-(carboxymethyl)-1-(9-methoxy-3-nitro-5,11-dioxo-5,11-dihydro-6H-indeno[1,2-c]isoquinolin-6-yl)-5,14,17,21,24,27,36,41-octaoxo-6-oxa-9,10-dithia-4,13,16,20,23,26,35,40,42-nonaaza | 29.8 |  |  |
| DUPA-Aoc-Phe-Phe-Dap-Asp-Cys |  | 58 | 172 |
